Source: patent US20170239283A1, “USE OF STING AGONISTS TO TREAT VIRALLY-INDUCED AND PRE-MALIGNANT GROWTHS” (Providence Health & Services - Oregon, priority 2016, published 2017)

Test system: papilloma
Assay type: in vivo, mice
Excerpt: Pdx-Cre^+/− (Stock190 014647, Jackson Laboratories, Bar Harbor, Me.), Kras^(G12D)+/− (Stock#008179, Jackson Laboratories), and Trp53^(R172H)+/− (Stock#01XM2, NCI Fredrick Mouse Repository) mice were crossed to generate Pdx-Cre^+/− Kras ^(G12D)+/− Trp53^(R172H)+/− that generate pancreatic tumors (Hingorani et al., Cancer Cell 7:469-483, 2005). At variable penetrance, mice develop papilloma of the face and anogenital region (Hingorani et al., Cancer Cell 7:469-483, 2005; Gades et al., Comp. Med. 58:271-275, 2008). Mice bearing papilloma with no evidence of pancreatic tumors and less than 90 days of age were accrued to this study. Masses were treated by injection of 25 μg of c-di-CDG (Invivogen, San Diego, Calif., Catalog No. tlrl-naldg), Imiquimod (Invivogen) or PBS vehicle.
STING ligands were administered into the papilloma by direct injection with a total dose of 25 μg administered in a 25 μl injection volume. In the control case, 25 μg of Imiquimod was administered using the same technique. For larger papillomas, the injection was split between different sites within the same growth. The total dose to the growth remained 25 μg in each case. The animals were retreated on day 7 with a second cycle of injections.
Rapid alterations in small papilloma to resemble normal skin were observed within 18 hours of treatment (FIGS. 2A and B). […]

## Nc1nc2c(ncn2[C@@H]2O[C@@H]3COP(=O)(O)O[C@H]4[C@@H](O)[C@H](n5cnc6c(=O)[nH]c(N)nc65)O[C@@H]4COP(=O)(O)O[C@H]3[C@H]2O)c(=O)[nH]1 [CDG, cyclic diguanylate monophosphate]
18 hours after injection into small papilloma
  histological analysis of injected site: inflammatory infiltrate in the subcutaneous space
Larger papilloma, injections on d0, d1, d7 and d8
  appearance of treated papilloma: evidence of blackening
